Measurements: patent US20110052585A1 (Sanofi, published 2011)
Results are given in words; binding and its absence hold for the method and conditions named. Some binding calls cover weakened binding; strength is not graded here.

Experiments:
rhIL-17 (human) [1] = molecular target: T1, rhIL-17 (human) (UniProt Q16552); assay: ELISA, ligand coated on plate, conditioned medium with soluble receptor
T1 sequence (looked up): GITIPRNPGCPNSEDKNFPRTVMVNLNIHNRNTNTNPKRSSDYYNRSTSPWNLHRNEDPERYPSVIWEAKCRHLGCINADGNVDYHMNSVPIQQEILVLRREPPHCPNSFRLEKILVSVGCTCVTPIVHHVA

rhIL-17 (human) [2] = molecular target: T1, rhIL-17 (human); assay: competition ELISA: IL-17 at 1 ng/ml preincubated with serial dilutions of receptor, free IL-17 measured by ELISA
rhIL-17 (human) [3] = molecular target: T1, rhIL-17 (human); assay: ELISA, plates pre-coated with IL-17, conditioned medium with soluble receptor, receptor-specific detection antibody

binding (rhIL-17 (human) [1]): binds
binding (rhIL-17 (human) [2]): binds
binding (rhIL-17 (human) [3]): binds
B1: sIL17RA-9gly-CH3 (Fc fusion)
chain: SLRLLDHRALVCSQPGLNCTVKNSTCLDDSWIHPRNLTPSSPKDLQIQLHFAHTQQGDLFPVAHIEWTLQTDASILYLEGAELSVLQLNTNERLCVRFEFLSKLRHHHRRWRFTFSHFVVDPDQEYEVTVHHLPKPIPDGDPNHQSKNFLVPDCEHARMKVTTPCMSSGSLWDPNITVETLEAHQLRVSFTLWNESTHYQILLTSFPHMENHSCFEHMHHIPAPRPEEFHQRSNVTLTLRNLKGCCRHQVQIQPFFSSCLNDCLRHSATVSCPEMPDTPEPIPDYMTGGGGGGGGGQPREPQVYTLPPSRDELTKNQVSLTCLVKGFYPSDIAVEWESNGQPENNYKTTPPVLDSDGSFFLYSKLTVDKSRWQQGNVFSCSVMHEALHNHYTQKSLSLSPG
